Test results as given in US3998811A, “Optically active 1,4-benzodiazepines and process for the preparation thereof” (CRC Compagnia di Recerca Chimica S.A., priority 1971, dated 1976).

Key:
mice = experiment: Anticonvulsant effect against maximal electroshock, mice; format: in vivo; settings: relative to chlordiazepoxide = 1.00, larger value = less effective
Procedure: The pharmacalogical activity of the novel compounds of this invention was evaluated by standard methods such as the anticonvulsant effect against pentylene tetrazole shock and maximal and minimal electroshock, muscle relaxing ability, the fighting test, and hypnotic effect. These standard test are described in detail in the literature, for example, in L. O. Randall, C. L. Schenkel, R. F. Banziger, Curr. Ther. Res., Clin. Exp., 590 (1965), and M. I. Gluckman, Curr. Ther. Res., Clin. Exp., 7,721 (1965).
This Example illustrates the pharmacological effectiveness of the compounds of this invention. A number of the compounds of this invention were tested for their pharmacological effect on the CNS by the procedures described above. Also tested were the corresponding racemic mixtures and three commercial tranquillizers:
The results of the tests are shown in Table IV wherein the relative potencies compared with that of chlordiazepoxide which is assigned an activity of 1.00. […] It can also be seen that the pharmaceutically active compounds of this invention compare favorably with some commercially useful tranquillizers and even surpass them in some respects.

LD 50 P.O., mice = settings: mouse, in vivo, po

Q: Which “Relative potency, anticonvulsant effect, maximal electro shock” value (mice) does the source give for `CN1C(=O)CN=C(c2ccccc2)c2cc(Cl)ccc21` [Diazepam, 7-chloro-1,3-dihydro-1-methyl-5-phenyl-2H-1,4-benzodiazepine-2-one] here?
A: Its value is 5.20.

Q: And the LD50 (LD 50 P.O., mice)?
A: The LD50 was 800 mg/kg.
